The values that follow are results of earlier work, collected in patent US10435371B2, “Multifunctional aminoquinoline therapeutic agent” (LOHOCLA RESEARCH CORPORATION, priority 2014, dated 2019).

The data set addresses GABA site, GABA-A Receptor. The conditions noted are these: PDSP historical reference value, [^3H]Muscimol; read-out: Reference Ki, GABAA (rat brain); cited from earlier work.

Consider `NCCCC(=O)O` [GABA], for which the Ki is 241 ± 26 nM.

What is called Ki is the dissociation constant of the complex between target and ligand, obtained from inhibition or displacement.
